{
  "source": "patent US9029383B2",
  "about": "“Methods of treatment of skin ulcers” (The Trustees Of The University of Pennsylvania, priority 2007, dated 2015)",
  "system": "DM/HC pigs (skin abscess)",
  "assay": "Skin abscess occurrence in diabetic/hypercholesterolemic (DM/HC) pig model",
  "assay_type": "in vivo",
  "details": "10 mg/kg/day, 6 months",
  "description": "A diabetic/diabetic hypercholestrolemic pig model (DM/HC) was developed that mimics human-like diabetes and human-like atherosclerosis. Farm pigs weighing 25-30 kg and aged ˜4 months were made diabetic with a single intravenous injection of 125 mg/kg of streptozotocin (Sicor Pharmaceuticals, Irvine, Calif.). After stabilized for 1-2 weeks, the animals with elevated levels of plasma glucose (>150 mg/dl) were fed with atherogenic (high-fat) diet as shown in Table 1 (Animal Specialties, Quakertown, Pa.) to achieve a cholesterol level of approximately 250-800 mg/dl.\nFor the 0.5% cholesterol diet the components are similar with the exception of 0.5% cholesterol and 20% lard. The animals were Yorkshire pigs that were castrated males at the age of […] and were obtained from Archer Farms, Darlington, Md. These feeds were prepared by Animal Specialties and Provisions, LLC, Quakertown, Pa. USA.\nOn days 1-2, animals were fed normal chow, followed by on days 3-14 animals were fed a diet of 0.5% cholesterol, 2% lard and on day 14, cholesterol levels were measured and the diet adjusted accordingly to increase to 2% cholesterol, 10% lard if cholesterol is <300 mg/dl. Following induction of DM/HC, cholesterol was measured until cholesterol levels are stable between 300 and 800 mg/dl, and following cholesterol stabilization, cholesterol was measured monthly. […] Monthly cholesterol levels were determined, including levels of total cholesterol, LDL, HDL, VLDL and triglycerides.\nAt one month after stabilization of cholersterol at 250-800 mg/dl, the animals were randomized into two experimental groups, DM/HC (hyperglycemia and hypercholesterolemia) group with no treatment and treatment group (10 mg/kg/day of SB-480848, also referred to as 1-(N-(2-(diethylamino)ethyl)-N-(4-(4-trifluoromethylphenyl)benzyl)-aminocarbonylmethyl)-2-(4-fluorobenzyl)thio-5,6-trimethylenepyrimidin-4-one). […] When abscesses were detected, treatment was applied. […]\nTwo diabetic/hypercholesterolemic groups were evaluated: 1. […]",
  "note": "At least one compound was matched to its structure with a doubt left.",
  "data": [
    {"compound": "CCN(CC)CCN(Cc1ccc(-c2ccc(C(F)(F)F)cc2)cc1)C(=O)Cn1c(SCc2ccc(F)cc2)nc(=O)c2c1CCC2", "note": "[SB-480848, 1-(N-(2-(Diethylamino)ethyl)-N-(4-(4-trifluoromethylphenyl)benzyl)aminocarbonylmethyl)-2-(4-fluorobenzyl)thio-5,6-trimethylenepyrimidin-4-one]", "values": [
      {"measurement": "Abscess Present", "setting": "pigs with abscess / pigs in group (%), both abscesses developed before start of inhibitor treatment", "result": "2/22 (9%)"},
      {"measurement": "Chronic Abscess", "setting": "pigs with chronic abscess / pigs in group (%)", "result": "0/22 (0%)"},
      {"measurement": "Recurrent Abscess", "setting": "pigs with recurrent abscess / pigs in group (%)", "result": "0/22 (0%)"}
    ]}
  ]
}
